{"sequences": {"note": "Sequences of proteins named here, by UniProt entry; tags and fusion partners are left off.", "UniProt P41595, whole entry L362F": "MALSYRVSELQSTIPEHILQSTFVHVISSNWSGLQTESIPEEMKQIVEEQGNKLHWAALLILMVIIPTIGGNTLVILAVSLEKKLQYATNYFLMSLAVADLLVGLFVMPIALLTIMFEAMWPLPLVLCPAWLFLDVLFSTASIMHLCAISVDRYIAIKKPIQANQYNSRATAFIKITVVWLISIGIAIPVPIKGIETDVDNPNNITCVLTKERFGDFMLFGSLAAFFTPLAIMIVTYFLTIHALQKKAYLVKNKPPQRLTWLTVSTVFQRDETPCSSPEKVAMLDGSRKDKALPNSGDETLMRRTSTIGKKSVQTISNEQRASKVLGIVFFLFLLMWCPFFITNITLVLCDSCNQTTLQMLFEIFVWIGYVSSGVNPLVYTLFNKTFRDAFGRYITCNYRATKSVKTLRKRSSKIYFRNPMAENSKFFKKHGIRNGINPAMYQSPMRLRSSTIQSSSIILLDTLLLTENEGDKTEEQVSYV", "UniProt P41595, whole entry L362N": "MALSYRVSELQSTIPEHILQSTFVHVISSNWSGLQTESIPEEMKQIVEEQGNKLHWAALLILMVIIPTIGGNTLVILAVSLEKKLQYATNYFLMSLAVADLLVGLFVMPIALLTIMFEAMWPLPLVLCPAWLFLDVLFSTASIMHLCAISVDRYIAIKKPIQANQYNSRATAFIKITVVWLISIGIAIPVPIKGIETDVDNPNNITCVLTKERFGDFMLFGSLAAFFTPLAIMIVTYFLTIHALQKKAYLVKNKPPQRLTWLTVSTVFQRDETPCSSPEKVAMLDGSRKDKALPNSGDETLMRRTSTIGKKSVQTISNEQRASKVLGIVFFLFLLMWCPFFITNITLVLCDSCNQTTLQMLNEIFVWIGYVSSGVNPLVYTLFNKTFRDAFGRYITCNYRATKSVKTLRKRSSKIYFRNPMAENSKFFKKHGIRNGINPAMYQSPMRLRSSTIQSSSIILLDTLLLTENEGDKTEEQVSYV", "UniProt P41595, whole entry L362Y": "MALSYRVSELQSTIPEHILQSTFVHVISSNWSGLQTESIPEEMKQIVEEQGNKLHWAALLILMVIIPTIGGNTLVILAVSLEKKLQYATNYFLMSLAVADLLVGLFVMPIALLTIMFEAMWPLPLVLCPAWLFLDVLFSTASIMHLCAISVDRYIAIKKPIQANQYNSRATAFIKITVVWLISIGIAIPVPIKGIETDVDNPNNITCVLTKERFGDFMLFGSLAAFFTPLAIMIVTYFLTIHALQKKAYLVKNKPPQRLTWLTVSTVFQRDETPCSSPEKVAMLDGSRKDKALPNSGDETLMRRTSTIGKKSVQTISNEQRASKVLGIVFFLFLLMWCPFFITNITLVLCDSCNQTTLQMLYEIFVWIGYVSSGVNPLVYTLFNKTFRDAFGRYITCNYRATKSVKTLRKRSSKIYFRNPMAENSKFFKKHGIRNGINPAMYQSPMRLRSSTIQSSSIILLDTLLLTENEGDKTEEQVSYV", "UniProt P41595, whole entry": "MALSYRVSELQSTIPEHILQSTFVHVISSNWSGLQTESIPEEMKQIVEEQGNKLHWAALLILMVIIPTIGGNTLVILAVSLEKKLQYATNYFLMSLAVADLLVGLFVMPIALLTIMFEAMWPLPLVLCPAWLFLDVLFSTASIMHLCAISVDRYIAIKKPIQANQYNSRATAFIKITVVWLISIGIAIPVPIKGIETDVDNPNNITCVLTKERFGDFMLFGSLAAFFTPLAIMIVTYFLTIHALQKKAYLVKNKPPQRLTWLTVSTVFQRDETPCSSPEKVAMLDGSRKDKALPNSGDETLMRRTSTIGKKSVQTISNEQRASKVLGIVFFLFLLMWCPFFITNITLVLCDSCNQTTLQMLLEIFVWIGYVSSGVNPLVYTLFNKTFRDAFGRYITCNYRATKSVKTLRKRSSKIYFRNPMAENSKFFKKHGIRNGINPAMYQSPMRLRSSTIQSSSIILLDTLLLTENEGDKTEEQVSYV"}, "source": "paper PMC6237183", "about": "(Nature structural & molecular biology, 2018)", "key": {"[1]": {"molecular_target": "T1, 5-HT2BR L362F^7.35 (Homo sapiens, UniProt P41595, L362F)", "details": "L362F^7.35 mutant"}, "[2]": {"molecular_target": "5-HT2BR L362N^7.35 (Homo sapiens, UniProt P41595, L362N)", "assay": "cell-based", "details": "read-out: Gq calcium flux Emax"}, "[3]": {"molecular_target": "5-HT2BR L362Y^7.35 (Homo sapiens, UniProt P41595, L362Y)", "assay": "cell-based", "details": "read-out: Gq calcium flux Emax"}, "[4]": {"molecular_target": "5-HT2BR wild-type (Homo sapiens, UniProt P41595)", "assay": "Gq-mediated calcium flux FLIPR assay"}, "[5]": {"molecular_target": "T1, 5-HT2BR L362F^7.35", "assay": "Gq-mediated calcium flux FLIPR assay", "details": "read-out: Gq calcium flux Emax"}}}
{"compound": "CCN(CC)C(=O)N[C@H]1C=C2c3cccc4[nH]cc(c34)C[C@H]2N(C)C1", "note": "[lisuride]", "values": [{"measurement": "β-arrestin recruitment agonism", "setting": "[1]", "result": "did not restore"}, {"measurement": "Emax", "setting": "[2]", "result": 41, "unit": "%"}, {"measurement": "Emax", "setting": "[3]", "result": 69, "unit": "%"}, {"measurement": "Gq calcium flux agonist activity", "setting": "[4]", "result": "lack of lisuride agonist activity"}, {"measurement": "Emax", "setting": "[5]", "result": 60, "unit": "%"}]}
